From PMC4122391, “Analysis of Functions of VIP1 and Its Close Homologs in Osmosensory Responses of Arabidopsis thaliana”
Results are given in words; binding and its absence hold for the method and conditions named. A result given as binding can be weak or reduced; the word gives no strength. Where a sequence is shown, tags or fusion partners need not be part of it. For some of these results: In cells and extracts the contact can be indirect.

What was measured:
[1] = target: T1, VIP1 fused to nYFP or to cYFP (BiFC constructs) (Arabidopsis thaliana) (UniProt Q9MA75); assay: split reporter; BiFC: nYFP-fused VIP1 and cYFP-fused proteins co-introduced into onion epidermal cells by particle bombardment; YFP fluorescence by epifluorescence microscopy; nYFP alone and cYFP alone as negative controls
T1 sequence: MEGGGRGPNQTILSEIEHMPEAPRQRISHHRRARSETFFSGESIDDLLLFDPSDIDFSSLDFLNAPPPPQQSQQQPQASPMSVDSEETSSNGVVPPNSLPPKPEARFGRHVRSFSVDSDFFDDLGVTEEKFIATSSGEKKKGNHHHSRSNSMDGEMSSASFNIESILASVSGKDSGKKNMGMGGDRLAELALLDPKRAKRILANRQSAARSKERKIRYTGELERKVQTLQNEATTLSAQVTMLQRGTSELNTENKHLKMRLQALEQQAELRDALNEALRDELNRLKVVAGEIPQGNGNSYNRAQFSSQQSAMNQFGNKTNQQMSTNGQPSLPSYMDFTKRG

[2] = target: T2, GAL4 DNA-binding domain-fused VIP1ΔN164 (C-terminal region, amino acids 165–341, of VIP1) (Arabidopsis thaliana) (UniProt Q9MA75); assay: two-hybrid; S. cerevisiae AH109 co-transformed with pGBKT7-VIP1ΔN164 (GAL4 BD fusion, bait) and pGADT7-Rec constructs (GAL4 AD fusions); growth on SD medium lacking adenine and histidine; BD alone as control
T2 sequence: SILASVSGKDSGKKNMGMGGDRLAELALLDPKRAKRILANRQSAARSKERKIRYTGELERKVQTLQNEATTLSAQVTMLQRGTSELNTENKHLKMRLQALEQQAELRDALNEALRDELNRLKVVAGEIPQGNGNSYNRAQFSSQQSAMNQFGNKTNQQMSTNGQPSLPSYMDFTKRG

binding [1] | binding [2] | Substance
binds | – | cYFP-fused AtbZIP52 (Arabidopsis thaliana)
– | binds | GAL4 activation domain-fused AtbZIP52 (Arabidopsis thaliana)
– | binds | GAL4 activation domain-fused AtbZIP29 (Arabidopsis thaliana)
– | binds | GAL4 activation domain-fused AtbZIP30 (Arabidopsis thaliana)
